Measured values published in the supplement of paper PMC10849652.
Some of the results follow.

The chains behind the UniProt entries cited, without tags or fusion partners. Where a name states a change or a piece, a line headed by the entry shows the natural chain unless it says otherwise.
UniProt Q6PGN9: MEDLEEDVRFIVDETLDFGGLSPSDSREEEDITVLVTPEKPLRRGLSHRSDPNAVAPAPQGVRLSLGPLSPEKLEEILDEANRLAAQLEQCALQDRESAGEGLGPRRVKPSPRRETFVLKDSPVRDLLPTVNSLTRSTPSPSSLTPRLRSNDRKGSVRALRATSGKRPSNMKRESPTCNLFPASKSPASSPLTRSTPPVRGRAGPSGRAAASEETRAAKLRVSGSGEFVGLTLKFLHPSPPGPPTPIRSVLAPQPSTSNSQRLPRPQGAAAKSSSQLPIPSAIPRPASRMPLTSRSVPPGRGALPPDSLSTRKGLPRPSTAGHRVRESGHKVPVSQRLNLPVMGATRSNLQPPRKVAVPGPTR
UniProt Q8TBF2: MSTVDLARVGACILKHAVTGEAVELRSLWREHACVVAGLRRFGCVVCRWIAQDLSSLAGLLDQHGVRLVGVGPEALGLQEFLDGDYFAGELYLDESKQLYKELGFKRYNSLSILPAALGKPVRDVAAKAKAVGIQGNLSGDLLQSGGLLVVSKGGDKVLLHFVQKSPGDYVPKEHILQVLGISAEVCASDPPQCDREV
UniProt Q5JS54: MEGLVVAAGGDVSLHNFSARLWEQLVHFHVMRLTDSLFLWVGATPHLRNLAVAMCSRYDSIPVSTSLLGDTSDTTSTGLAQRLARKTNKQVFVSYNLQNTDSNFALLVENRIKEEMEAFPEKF
UniProt P28074: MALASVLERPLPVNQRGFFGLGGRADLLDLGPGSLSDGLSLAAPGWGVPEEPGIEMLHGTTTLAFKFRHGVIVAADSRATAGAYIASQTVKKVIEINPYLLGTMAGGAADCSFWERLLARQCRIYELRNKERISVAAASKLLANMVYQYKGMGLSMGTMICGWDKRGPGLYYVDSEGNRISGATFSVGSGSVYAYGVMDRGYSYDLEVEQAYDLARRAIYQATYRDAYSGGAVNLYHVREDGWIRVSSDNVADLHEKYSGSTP
UniProt O75475: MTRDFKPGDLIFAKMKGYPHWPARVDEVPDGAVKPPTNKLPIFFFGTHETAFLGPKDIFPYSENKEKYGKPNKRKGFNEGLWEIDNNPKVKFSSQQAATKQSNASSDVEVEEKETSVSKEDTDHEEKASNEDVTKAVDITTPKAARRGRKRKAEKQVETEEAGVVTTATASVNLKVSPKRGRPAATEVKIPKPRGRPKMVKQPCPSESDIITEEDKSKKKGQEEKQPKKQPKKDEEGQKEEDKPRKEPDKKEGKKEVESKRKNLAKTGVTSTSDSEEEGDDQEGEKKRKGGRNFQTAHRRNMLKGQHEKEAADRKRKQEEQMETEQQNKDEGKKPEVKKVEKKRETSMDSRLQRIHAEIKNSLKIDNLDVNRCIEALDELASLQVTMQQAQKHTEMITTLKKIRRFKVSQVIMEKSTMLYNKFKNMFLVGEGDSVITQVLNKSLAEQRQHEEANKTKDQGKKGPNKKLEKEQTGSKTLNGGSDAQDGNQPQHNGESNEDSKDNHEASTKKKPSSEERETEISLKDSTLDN
UniProt Q9BRQ0: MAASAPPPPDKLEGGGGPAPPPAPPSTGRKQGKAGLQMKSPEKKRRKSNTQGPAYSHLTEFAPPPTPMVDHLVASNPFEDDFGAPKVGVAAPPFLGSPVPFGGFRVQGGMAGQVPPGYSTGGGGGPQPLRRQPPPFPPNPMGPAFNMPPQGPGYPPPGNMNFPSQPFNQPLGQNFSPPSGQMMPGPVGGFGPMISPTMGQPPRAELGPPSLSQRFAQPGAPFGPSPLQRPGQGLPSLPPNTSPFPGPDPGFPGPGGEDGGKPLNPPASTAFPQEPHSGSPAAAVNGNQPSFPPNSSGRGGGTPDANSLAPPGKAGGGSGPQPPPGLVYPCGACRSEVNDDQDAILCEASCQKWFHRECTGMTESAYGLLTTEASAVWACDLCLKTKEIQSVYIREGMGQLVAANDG
UniProt Q06323: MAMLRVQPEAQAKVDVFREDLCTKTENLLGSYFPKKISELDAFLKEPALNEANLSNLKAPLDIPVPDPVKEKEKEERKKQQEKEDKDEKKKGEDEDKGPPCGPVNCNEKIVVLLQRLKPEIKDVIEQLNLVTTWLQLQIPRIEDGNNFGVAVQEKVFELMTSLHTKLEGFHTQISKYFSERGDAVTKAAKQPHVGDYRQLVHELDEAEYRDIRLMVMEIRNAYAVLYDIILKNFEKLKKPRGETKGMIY
UniProt P15151: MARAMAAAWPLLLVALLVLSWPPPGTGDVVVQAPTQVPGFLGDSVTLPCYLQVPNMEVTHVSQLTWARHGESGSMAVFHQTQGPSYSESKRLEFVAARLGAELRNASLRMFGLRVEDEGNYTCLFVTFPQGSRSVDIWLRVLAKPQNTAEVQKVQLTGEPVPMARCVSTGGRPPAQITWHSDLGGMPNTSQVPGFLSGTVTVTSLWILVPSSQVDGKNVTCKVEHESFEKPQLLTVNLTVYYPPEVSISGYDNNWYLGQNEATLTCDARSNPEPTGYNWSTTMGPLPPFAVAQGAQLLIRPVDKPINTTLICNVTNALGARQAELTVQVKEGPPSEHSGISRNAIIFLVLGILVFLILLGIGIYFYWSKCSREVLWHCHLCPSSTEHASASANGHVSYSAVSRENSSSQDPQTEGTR
UniProt Q8NDX1: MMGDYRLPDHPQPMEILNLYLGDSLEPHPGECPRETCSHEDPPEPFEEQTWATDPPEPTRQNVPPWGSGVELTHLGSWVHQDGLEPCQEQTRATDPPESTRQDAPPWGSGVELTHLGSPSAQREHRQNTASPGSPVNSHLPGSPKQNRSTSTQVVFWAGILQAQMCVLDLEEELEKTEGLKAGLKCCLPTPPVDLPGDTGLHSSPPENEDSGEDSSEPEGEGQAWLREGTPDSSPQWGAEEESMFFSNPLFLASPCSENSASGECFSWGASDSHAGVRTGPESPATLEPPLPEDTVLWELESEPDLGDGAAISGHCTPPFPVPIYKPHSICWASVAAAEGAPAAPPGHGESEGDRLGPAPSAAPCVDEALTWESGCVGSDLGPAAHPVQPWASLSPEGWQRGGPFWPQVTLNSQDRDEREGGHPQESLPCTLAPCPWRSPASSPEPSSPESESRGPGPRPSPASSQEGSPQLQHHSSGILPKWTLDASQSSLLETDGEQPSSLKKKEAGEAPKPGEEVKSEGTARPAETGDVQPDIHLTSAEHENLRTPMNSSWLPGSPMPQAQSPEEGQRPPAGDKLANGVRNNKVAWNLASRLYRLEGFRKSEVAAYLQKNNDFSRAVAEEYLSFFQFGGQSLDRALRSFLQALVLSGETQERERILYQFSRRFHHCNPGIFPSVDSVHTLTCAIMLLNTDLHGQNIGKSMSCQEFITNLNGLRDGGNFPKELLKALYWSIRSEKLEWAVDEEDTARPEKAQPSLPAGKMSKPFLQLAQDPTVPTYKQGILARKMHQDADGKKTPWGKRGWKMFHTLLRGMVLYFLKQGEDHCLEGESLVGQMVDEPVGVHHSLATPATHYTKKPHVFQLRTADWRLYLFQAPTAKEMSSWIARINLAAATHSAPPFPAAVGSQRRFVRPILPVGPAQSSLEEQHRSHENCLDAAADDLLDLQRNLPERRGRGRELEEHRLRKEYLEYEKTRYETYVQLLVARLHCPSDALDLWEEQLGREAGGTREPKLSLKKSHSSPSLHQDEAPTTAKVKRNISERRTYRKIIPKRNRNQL
UniProt Q96I23: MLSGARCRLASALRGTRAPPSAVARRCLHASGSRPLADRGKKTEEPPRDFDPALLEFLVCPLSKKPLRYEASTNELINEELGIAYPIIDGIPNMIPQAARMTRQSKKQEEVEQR
UniProt Q3MIT2: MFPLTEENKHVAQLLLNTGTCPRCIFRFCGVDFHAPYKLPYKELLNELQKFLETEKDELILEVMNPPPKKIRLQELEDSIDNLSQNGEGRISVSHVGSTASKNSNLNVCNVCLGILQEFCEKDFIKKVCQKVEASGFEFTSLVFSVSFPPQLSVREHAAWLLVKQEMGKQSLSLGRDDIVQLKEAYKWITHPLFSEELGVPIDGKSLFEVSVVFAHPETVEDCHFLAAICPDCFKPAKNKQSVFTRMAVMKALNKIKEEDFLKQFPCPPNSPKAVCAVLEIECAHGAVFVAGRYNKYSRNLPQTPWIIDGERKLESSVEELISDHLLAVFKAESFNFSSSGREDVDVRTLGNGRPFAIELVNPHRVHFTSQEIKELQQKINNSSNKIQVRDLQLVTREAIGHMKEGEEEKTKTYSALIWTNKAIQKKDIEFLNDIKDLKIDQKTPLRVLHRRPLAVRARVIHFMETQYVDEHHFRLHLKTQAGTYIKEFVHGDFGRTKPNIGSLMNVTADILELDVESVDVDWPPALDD
UniProt O75832: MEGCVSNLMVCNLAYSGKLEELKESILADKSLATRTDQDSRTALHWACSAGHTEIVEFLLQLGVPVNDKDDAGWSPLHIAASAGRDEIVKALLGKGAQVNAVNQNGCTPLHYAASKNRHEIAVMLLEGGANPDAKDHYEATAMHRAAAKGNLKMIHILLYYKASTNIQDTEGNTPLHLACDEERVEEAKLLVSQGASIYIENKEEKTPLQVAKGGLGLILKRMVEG
UniProt P49720: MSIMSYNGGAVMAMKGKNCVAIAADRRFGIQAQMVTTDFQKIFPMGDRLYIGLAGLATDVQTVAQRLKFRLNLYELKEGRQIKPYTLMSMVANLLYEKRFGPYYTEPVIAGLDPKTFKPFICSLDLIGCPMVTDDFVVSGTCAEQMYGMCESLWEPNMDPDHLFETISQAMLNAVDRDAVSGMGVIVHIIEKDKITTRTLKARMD
UniProt P20618: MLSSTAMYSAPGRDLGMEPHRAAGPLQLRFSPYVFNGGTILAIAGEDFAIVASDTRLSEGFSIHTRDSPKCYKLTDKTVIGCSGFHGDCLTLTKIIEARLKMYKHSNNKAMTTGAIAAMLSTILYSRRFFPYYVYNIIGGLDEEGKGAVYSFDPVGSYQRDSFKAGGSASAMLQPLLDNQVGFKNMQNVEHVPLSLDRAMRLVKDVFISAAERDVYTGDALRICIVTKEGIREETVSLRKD
UniProt O14818: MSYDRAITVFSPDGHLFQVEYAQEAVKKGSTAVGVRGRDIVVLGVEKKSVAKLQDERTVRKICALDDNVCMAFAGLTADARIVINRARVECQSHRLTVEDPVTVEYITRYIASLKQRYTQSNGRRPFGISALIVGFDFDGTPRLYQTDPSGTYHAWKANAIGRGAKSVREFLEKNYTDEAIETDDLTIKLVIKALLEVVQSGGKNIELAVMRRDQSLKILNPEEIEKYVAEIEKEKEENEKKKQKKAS
UniProt Q9P2W1: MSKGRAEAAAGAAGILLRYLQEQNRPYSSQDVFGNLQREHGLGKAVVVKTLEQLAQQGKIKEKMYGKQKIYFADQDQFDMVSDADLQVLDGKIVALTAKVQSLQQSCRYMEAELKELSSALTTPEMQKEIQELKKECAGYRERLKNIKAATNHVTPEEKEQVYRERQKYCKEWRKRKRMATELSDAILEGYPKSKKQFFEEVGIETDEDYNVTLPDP
UniProt Q03393: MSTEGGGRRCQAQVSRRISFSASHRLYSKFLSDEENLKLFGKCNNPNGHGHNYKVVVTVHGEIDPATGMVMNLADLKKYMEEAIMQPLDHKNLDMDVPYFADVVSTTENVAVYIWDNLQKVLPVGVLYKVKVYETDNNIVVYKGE
UniProt Q9BRX8: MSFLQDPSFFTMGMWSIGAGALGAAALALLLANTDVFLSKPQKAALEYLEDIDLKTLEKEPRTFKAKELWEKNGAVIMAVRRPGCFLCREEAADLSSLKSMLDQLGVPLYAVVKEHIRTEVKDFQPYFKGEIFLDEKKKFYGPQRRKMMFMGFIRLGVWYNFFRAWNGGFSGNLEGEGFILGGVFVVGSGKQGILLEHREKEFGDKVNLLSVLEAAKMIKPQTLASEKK
UniProt P25789: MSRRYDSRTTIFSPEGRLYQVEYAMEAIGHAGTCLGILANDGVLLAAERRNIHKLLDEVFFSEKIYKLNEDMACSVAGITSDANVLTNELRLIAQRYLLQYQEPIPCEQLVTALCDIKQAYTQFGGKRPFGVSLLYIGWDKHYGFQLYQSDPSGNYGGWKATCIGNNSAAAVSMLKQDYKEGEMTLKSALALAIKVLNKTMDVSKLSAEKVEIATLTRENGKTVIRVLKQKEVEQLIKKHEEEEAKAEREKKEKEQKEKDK
UniProt Q969U7: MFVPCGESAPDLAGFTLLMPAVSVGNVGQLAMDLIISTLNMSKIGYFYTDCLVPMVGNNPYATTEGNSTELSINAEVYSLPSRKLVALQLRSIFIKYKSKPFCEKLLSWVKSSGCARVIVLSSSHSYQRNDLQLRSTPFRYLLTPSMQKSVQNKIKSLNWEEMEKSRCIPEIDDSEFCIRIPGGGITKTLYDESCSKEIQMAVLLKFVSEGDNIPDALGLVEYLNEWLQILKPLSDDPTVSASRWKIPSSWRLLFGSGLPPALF
UniProt O00487, whole entry, looked up: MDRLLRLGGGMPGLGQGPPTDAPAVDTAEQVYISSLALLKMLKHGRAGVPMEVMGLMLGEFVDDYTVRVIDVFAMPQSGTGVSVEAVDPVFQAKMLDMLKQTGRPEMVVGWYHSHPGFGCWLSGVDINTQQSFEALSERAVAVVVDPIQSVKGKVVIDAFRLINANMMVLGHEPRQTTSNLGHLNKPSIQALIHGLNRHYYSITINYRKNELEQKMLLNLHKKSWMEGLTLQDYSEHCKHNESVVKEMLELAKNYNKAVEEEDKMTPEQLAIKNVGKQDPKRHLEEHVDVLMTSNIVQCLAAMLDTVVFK

Compound: c1cn2cc(-c3ccc4cn[nH]c4c3)nc(Nc3ccc(N4CCOCC4)cc3)c2n1 [entospletinib]
Assay: log2 fold change, soluble protein after heating vs DMSO (PISA); higher = thermal stabilisation; K562 cells, 10 uM, 30 min; active = over 0.2 and 3.5 SD of the protein, either way, in both replicates (recomputed)
How it was run: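 Soluble protein was defined as the supernatant after 21,000xg for 90 min. It came from K562 cells at 2×10^6 cells/mL given 10 μM compound for 30 min, heated in aliquots for 3 min across 48°C-58°C, pooled, and extracted in PBS with 0.5% NP-40 at 4°C, and was quantified by TMTpro 16plex LC-MS/MS with equalised channel sums. Thermal stability against control samples, from duplicates, is reported as log2 fold change.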

log2 fold change, inactive:
PSRC1 (UniProt Q6PGN9) 0.05
R3HDM1 isoform 2 (UniProt Q15032) -0.165
PRXL2B isoform 3 (UniProt Q8TBF2) -0.058
PYCR3 (UniProt Q53H96) -0.008
PSMG4 isoform 2 (UniProt Q5JS54) 0.005
PYM1 (UniProt Q9BRP8) 0.018
PSMB5 (UniProt P28074) -0.025
PYCR1 isoform 3 (UniProt P32322) 0.033
PSAP isoform 3 (UniProt P07602) -0.002
PSIP1 (UniProt O75475) 0.023
PYGO2 (UniProt Q9BRQ0) 0.066
PSME1 (UniProt Q06323) 0.008
PVR (UniProt P15151) -0.046
PSD4 (UniProt Q8NDX1) 0.128
PYURF (UniProt Q96I23) -0.021
PUS10 (UniProt Q3MIT2) -0.029
PSIP1 (UniProt V9GYT7) -0.089
PSMD10 (UniProt O75832) 0
PTMS (UniProt P20962) 0.015
PSMB3 (UniProt P49720) 0.017
PSMB1 (UniProt P20618) 0.022
PSMA7 (UniProt O14818) 0.013
PSMC3IP (UniProt Q9P2W1) -0.136
PTS (UniProt Q03393) 0.008
PSMA6 (UniProt P60900) -0.011
PSMA2 (UniProt P25787) 0.025
PRXL2A (UniProt Q9BRX8) -0.193
PSMA4 (UniProt P25789) 0.015
PSMG2 (UniProt Q969U7) -0.021
PSMD14 (UniProt O00487) -0.001
PUS7 isoform 2 (UniProt Q96PZ0) 0.041

Pulled one by one from the entries so far (2):
log2 fold change, inactive:
PYCR1 isoform 3 (UniProt P32322) 0.033
PSMB5 (UniProt P28074) -0.025
